Measured values: the supplement of paper PMC8728848
Some of the results follow.

Assays:
Assay in all cases: glycan array binding signal (z-score within array); higher = stronger binding
Settings in all cases: glycan notation: IUPAC condensed, linker removed
[1] = target: Neu5Ac(a2-3)Gal(b1-3)GlcNAc6S
Method in brief: (§1)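 Columns mapping to the same glycan were averaged after glycan names were converted to IUPAC-condensed notation. The data come from 3228 arrays in the Consortium for Functional Glycomics database, limited to those with an available protein sequence. Binding is reported as a within-array Z-score averaged across arrays of one protein sequence and across linkers.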

[2] = target: Neu5Ac(a2-3)Gal(b1-3)[Fuc(a1-4)]GlcNAc
Method in brief: as §1

[3] = target: Neu5Ac(a2-3)Gal(b1-3)[Fuc(a1-4)]GlcNAc(b1-3)Gal(b1-3)[Fuc(a1-4)]GlcNAc
Method in brief: as §1

[4] = target: Neu5Ac(a2-3)Gal(b1-3)[Fuc(a1-4)]GlcNAc(b1-3)Gal(b1-4)[Fuc(a1-3)]GlcNAc
Method in brief: as §1

[5] = target: Neu5Ac(a2-3)Gal(b1-3)[GlcNAc(b1-6)]GalNAc
Method in brief: as §1

[6] = target: Neu5Ac(a2-3)Gal(b1-3)[Neu5Ac(a2-6)]GalNAc
Method in brief: as §1

[7] = target: Neu5Ac(a2-3)Gal(b1-3)[Neu5Ac(a2-6)]GlcNAc(b1-3)[Fuc(a1-3)[Gal(b1-4)]GlcNAc(b1-6)]Gal(b1-4)Glc
Method in brief: as §1

[8] = target: Neu5Ac(a2-3)Gal(b1-3)]Neu5Ac(a2-3)Gal(b1-4)]GlcNAc
Method in brief: as §1

Neu5Ac(a2-3)Gal(b1-4)Glc = target: Neu5Ac(a2-3)Gal(b1-4)Glc
Method in brief: as §1

[9] = target: Neu5Ac(a2-3)Gal(b1-4)GlcNAc
Method in brief: as §1

[10] = target: Neu5Ac(a2-3)Gal(b1-4)GlcNAc(b1-2)Man
Method in brief: as §1

[11] = target: Neu5Ac(a2-3)Gal(b1-4)GlcNAc(b1-2)Man(a1-3)[GlcNAc(b1-4)][Neu5Ac(a2-3)Gal(b1-4)GlcNAc(b1-2)Man(a1-6)]Man(b1-4)GlcNAc(b1-4)GlcNAc
Method in brief: as §1

[12] = target: Neu5Ac(a2-3)Gal(b1-4)GlcNAc(b1-2)Man(a1-3)[Neu5Ac(a2-3)Gal(b1-4)GlcNAc(b1-2)Man(a1-6)]Man(b1-4)GlcNAc(b1-4)GlcNAc
Method in brief: as §1

[13] = target: Neu5Ac(a2-3)Gal(b1-4)GlcNAc(b1-2)Man(a1-3)[Neu5Ac(a2-3)Gal(b1-4)GlcNAc(b1-2)Man(a1-6)]Man(b1-4)GlcNAc(b1-4)[Fuc(a1-6)]GlcNAc
Method in brief: as §1

[14] = target: Neu5Ac(a2-3)Gal(b1-4)GlcNAc(b1-2)Man(a1-3)[Neu5Ac(a2-6)Gal(b1-4)GlcNAc(b1-2)Man(a1-6)]Man(b1-4)GlcNAc(b1-4)GlcNAc
Method in brief: as §1

[15] = target: Neu5Ac(a2-3)Gal(b1-4)GlcNAc(b1-2)[Neu5Ac(a2-3)Gal(b1-4)GlcNAc(b1-4)]Man(a1-3)[GlcNAc(b1-4)][Neu5Ac(a2-3)Gal(b1-4)GlcNAc(b1-2)[Neu5Ac(a2-3)Gal(b1-4)GlcNAc(b1-6)]Man(a1-6)]Man(b1-4)GlcNAc(b1-4)GlcNAc
Method in brief: as §1

[16] = target: Neu5Ac(a2-3)Gal(b1-4)GlcNAc(b1-2)[Neu5Ac(a2-3)Gal(b1-4)GlcNAc(b1-4)]Man(a1-3)[GlcNAc(b1-4)][Neu5Ac(a2-3)Gal(b1-4)GlcNAc(b1-4)Man(a1-6)]Man(b1-4)GlcNAc(b1-4)GlcNAc
Method in brief: as §1

[17] = target: Neu5Ac(a2-3)Gal(b1-4)GlcNAc(b1-2)[Neu5Ac(a2-3)Gal(b1-4)GlcNAc(b1-6)]Man(a1-6)[Neu5Ac(a2-3)Gal(b1-4)GlcNAc(b1-2)Man(a1-3)]Man(b1-4)GlcNAc(b1-4)GlcNAc
Method in brief: as §1

[18] = target: Neu5Ac(a2-3)Gal(b1-4)GlcNAc(b1-2)[Neu5Ac(a2-3)Gal(b1-4)GlcNAc(b1-6)]Man(a1-6)[Neu5Ac(a2-3)Gal(b1-4)GlcNAc(b1-2)Man(a1-3)][GlcNAc(b1-4)]Man(b1-4)GlcNAc(b1-4)GlcNAc
Method in brief: as §1

[19] = target: Neu5Ac(a2-3)Gal(b1-4)GlcNAc(b1-3)Gal
Method in brief: as §1

[20] = target: Neu5Ac(a2-3)Gal(b1-4)GlcNAc(b1-3)Gal(b1-3)GlcNAc
Method in brief: as §1

[21] = target: Neu5Ac(a2-3)Gal(b1-4)GlcNAc(b1-3)Gal(b1-4)GlcNAc
Method in brief: as §1

[22] = target: Neu5Ac(a2-3)Gal(b1-4)GlcNAc(b1-3)Gal(b1-4)GlcNAc(b1-2)Man(a1-3)[Neu5Ac(a2-3)Gal(b1-4)GlcNAc(b1-3)Gal(b1-4)GlcNAc(b1-2)Man(a1-6)]Man(b1-4)GlcNAc(b1-4)GlcNAc
Method in brief: as §1

[23] = target: Neu5Ac(a2-3)Gal(b1-4)GlcNAc(b1-3)Gal(b1-4)GlcNAc(b1-3)Gal(b1-4)GlcNAc
Method in brief: as §1

[24] = target: Neu5Ac(a2-3)Gal(b1-4)GlcNAc(b1-3)Gal(b1-4)GlcNAc(b1-3)Gal(b1-4)GlcNAc(b1-2)Man(a1-3)[Neu5Ac(a2-3)Gal(b1-4)GlcNAc(b1-3)Gal(b1-4)GlcNAc(b1-3)Gal(b1-4)GlcNAc(b1-2)Man(a1-6)]GalNAc
Method in brief: as §1

[25] = target: Neu5Ac(a2-3)Gal(b1-4)GlcNAc(b1-3)Gal(b1-4)GlcNAc(b1-3)GalNAc
Method in brief: as §1

[26] = target: Neu5Ac(a2-3)Gal(b1-4)GlcNAc(b1-3)Gal(b1-4)GlcNAc(b1-3)[Neu5Ac(a2-3)Gal(b1-4)GlcNAc(b1-3)Gal(b1-4)GlcNAc(b1-6)]GalNAc
Method in brief: as §1

[27] = target: Neu5Ac(a2-3)Gal(b1-4)GlcNAc(b1-3)Gal(b1-4)GlcNAc(b1-6)[Gal(b1-3)]GalNAc
Method in brief: as §1

[28] = target: Neu5Ac(a2-3)Gal(b1-4)GlcNAc(b1-3)Gal(b1-4)[Fuc(a1-3)]GlcNAc
Method in brief: as §1

[29] = target: Neu5Ac(a2-3)Gal(b1-4)GlcNAc(b1-3)GalNAc
Method in brief: as §1

[30] = target: Neu5Ac(a2-3)Gal(b1-4)GlcNAc(b1-3)[Neu5Ac(a2-3)Gal(b1-4)GlcNAc(b1-6)]GalNAc
Method in brief: as §1

[31] = target: Neu5Ac(a2-3)Gal(b1-4)GlcNAc(b1-6)GalNAc
Method in brief: as §1

[32] = target: Neu5Ac(a2-3)Gal(b1-4)GlcNAc(b1-6)[Gal(b1-3)]GalNAc
Method in brief: as §1

[33] = target: Neu5Ac(a2-3)Gal(b1-4)GlcNAc(b1-6)[Neu5Ac(a2-3)Gal(b1-3)]GalNAc
Method in brief: as §1

[34] = target: Neu5Ac(a2-3)Gal(b1-4)GlcNAc6S
Method in brief: as §1

[35] = target: Neu5Ac(a2-3)Gal(b1-4)[Fuc(a1-3)]GlcNAc
Method in brief: as §1

[36] = target: Neu5Ac(a2-3)Gal(b1-4)[Fuc(a1-3)]GlcNAc(b1-2)Man
Method in brief: as §1

[37] = target: Neu5Ac(a2-3)Gal(b1-4)[Fuc(a1-3)]GlcNAc(b1-3)Gal
Method in brief: as §1

[38] = target: Neu5Ac(a2-3)Gal(b1-4)[Fuc(a1-3)]GlcNAc(b1-3)Gal(b1-4)GlcNAc
Method in brief: as §1

[39] = target: Neu5Ac(a2-3)Gal(b1-4)[Fuc(a1-3)]GlcNAc(b1-3)Gal(b1-4)[Fuc(a1-3)]GlcNAc(b1-3)Gal(b1-4)[Fuc(a1-3)]GlcNAc
Method in brief: as §1

[40] = target: Neu5Ac(a2-3)Gal(b1-4)[Fuc(a1-3)]GlcNAc(b1-3)GalNAc
Method in brief: as §1

[41] = target: Neu5Ac(a2-3)Gal(b1-4)[Fuc(a1-3)]GlcNAc(b1-6)[Gal(b1-3)]GalNAc
Method in brief: as §1

[42] = target: Neu5Ac(a2-3)Gal(b1-4)[Fuc(a1-3)]GlcNAc(b1-6)[Neu5Ac(a2-3)Gal(b1-3)]GalNAc
Method in brief: as §1

[43] = target: Neu5Ac(a2-3)Gal(b1-4)[Fuc(a1-3)]GlcNAc6S
Method in brief: as §1

[44] = target: Neu5Ac(a2-3)Gal6S(b1-4)GlcNAc
Method in brief: as §1

B1: Ovorubin (Pomacea canaliculata), J7I2T6 (protein)
chain: MFVATSLLLAIATLVVRASPHNYLIMDIEPPKSVSERDILNLLSPLQVKHSFRVTGSTRLLIVIRLDAQSYEKLDEITVPGKVEVIPAVNMADTMERCGVSWPRVELTDDNVTLFESESTLTDVTKEQLKAMLIGYGEHMSGLLQAHRFEYYQAAGATPHRHFVFVNSVPDEIEVFGREGVDIWGGPGEFVVKPQYVTRI
Question: For B1, which “glycan array binding signal (z-score)” value [1] is on record?
Answer: The value was 0.718.

Question: What about the “glycan array binding signal (z-score)” value [2] of the same binder?
Answer: Its value is -0.148.

Question: And the “glycan array binding signal (z-score)” value [3]?
Answer: Its value is 0.722.

Question: What about the “glycan array binding signal (z-score)” value [4] of the same binder?
Answer: The value was -0.697.

Question: And the “glycan array binding signal (z-score)” value [5]?
Answer: The value was 0.518.

Question: And the “glycan array binding signal (z-score)” value [6]?
Answer: Its value is -0.417.

Question: What about the “glycan array binding signal (z-score)” value [7] of the same binder?
Answer: Its value is -0.335.

Question: And the “glycan array binding signal (z-score)” value [8]?
Answer: Its value is -0.934.

Question: What about the “glycan array binding signal (z-score)” value (Neu5Ac(a2-3)Gal(b1-4)Glc) of the same binder?
Answer: The value was 0.013.

Question: What about the “glycan array binding signal (z-score)” value [9] of the same binder?
Answer: The value was -0.593.

Question: What about the “glycan array binding signal (z-score)” value [10] of the same binder?
Answer: The value was 1.09.

Question: And the “glycan array binding signal (z-score)” value [11]?
Answer: The value was -0.644.

Question: And the “glycan array binding signal (z-score)” value [12]?
Answer: The value was -0.45.

Question: And the “glycan array binding signal (z-score)” value [13]?
Answer: The value was -0.708.

Question: And the “glycan array binding signal (z-score)” value [14]?
Answer: Its value is -1.01.

Question: What about the “glycan array binding signal (z-score)” value [15] of the same binder?
Answer: Its value is -0.44.

Question: What about the “glycan array binding signal (z-score)” value [16] of the same binder?
Answer: The value was -0.397.

Question: What about the “glycan array binding signal (z-score)” value [17] of the same binder?
Answer: The value was 0.215.

Question: And the “glycan array binding signal (z-score)” value [18]?
Answer: Its value is -0.37.

Question: What about the “glycan array binding signal (z-score)” value [19] of the same binder?
Answer: The value was -0.653.

Question: What about the “glycan array binding signal (z-score)” value [20] of the same binder?
Answer: The value was -1.19.

Question: What about the “glycan array binding signal (z-score)” value [21] of the same binder?
Answer: The value was -0.012.

Question: And the “glycan array binding signal (z-score)” value [22]?
Answer: Its value is -0.209.

Question: And the “glycan array binding signal (z-score)” value [23]?
Answer: The value was 1.03.

Question: And the “glycan array binding signal (z-score)” value [24]?
Answer: Its value is 1.01.

Question: What about the “glycan array binding signal (z-score)” value [25] of the same binder?
Answer: Its value is 0.207.

Question: And the “glycan array binding signal (z-score)” value [26]?
Answer: The value was -0.594.

Question: What about the “glycan array binding signal (z-score)” value [27] of the same binder?
Answer: Its value is -0.868.

Question: And the “glycan array binding signal (z-score)” value [28]?
Answer: The value was 0.945.

Question: What about the “glycan array binding signal (z-score)” value [29] of the same binder?
Answer: The value was 0.259.

Question: What about the “glycan array binding signal (z-score)” value [30] of the same binder?
Answer: Its value is -0.6.

Question: And the “glycan array binding signal (z-score)” value [31]?
Answer: Its value is 0.228.

Question: What about the “glycan array binding signal (z-score)” value [32] of the same binder?
Answer: Its value is -0.463.

Question: And the “glycan array binding signal (z-score)” value [33]?
Answer: Its value is -0.744.

Question: And the “glycan array binding signal (z-score)” value [34]?
Answer: Its value is 0.708.

Question: What about the “glycan array binding signal (z-score)” value [35] of the same binder?
Answer: Its value is -0.593.

Question: And the “glycan array binding signal (z-score)” value [36]?
Answer: Its value is -0.544.

Question: What about the “glycan array binding signal (z-score)” value [37] of the same binder?
Answer: The value was -1.06.

Question: And the “glycan array binding signal (z-score)” value [38]?
Answer: Its value is 0.448.

Question: What about the “glycan array binding signal (z-score)” value [39] of the same binder?
Answer: The value was 0.646.

Question: What about the “glycan array binding signal (z-score)” value [40] of the same binder?
Answer: Its value is 0.47.

Question: And the “glycan array binding signal (z-score)” value [41]?
Answer: Its value is -0.527.

Question: And the “glycan array binding signal (z-score)” value [42]?
Answer: The value was -0.055.

Question: What about the “glycan array binding signal (z-score)” value [43] of the same binder?
Answer: Its value is -0.291.

Question: What about the “glycan array binding signal (z-score)” value [44] of the same binder?
Answer: The value was 0.599.
